In PubChem BioAssay AID192 (DTP/NCI, 2004):
The list does not hold the whole screen: it is rich in T/C values a quarter to a half above the control, in often repeated tests (any T/C) and in doses without a T/C. Further doses and runs are listed elsewhere. T/C gives the treated animals as a percentage of the vehicle group. Some doses have a count of surviving animals in place of a T/C: the source files T/C as zero there, which appears to mark a toxic dose or a test without result, not a measured value. Some doses without a T/C left all or most animals alive at the check, yet need not have been tolerated: the source hardly ever lists a survival T/C far under the control, and the zero likely stands for such cases as well. Survivors were counted at the toxicity check, usually on the fifth day, unless a day is given; later deaths do not show. Schedule codes are those of the source, read here as Q, the interval in days (D) or hours (H), X, the number of doses. For survival time, the PubChem record calls one and a half times the control and up active, and a quarter to a half above the control has no call in these data; cut-offs in other NCI protocols can differ. Some T/C values carry the count of animals alive at the toxicity check (mostly the fifth day); without a count, all were alive then. Some entries hold several experiments; the results are listed from low to high. Counts like (3×) say how often a value occurs here.

System: BDF1 mice, B16 melanoma ip, median survival T/C
Assay: NCI In Vivo Anticancer Drug Screen. Data for tumor model B16 Melanoma (intraperitoneal) in B6D2F1 (BDF1) mice
Conditions: T/C endpoint: median survival time, higher T/C = longer survival
How it was run: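 In this screen, activity was judged from survival or tumor size in treated versus vehicle-treated tumor-bearing mice, reported as T/C.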

For COc1cccc2c1C(=O)c1c(O)c3c(c(O)c1C2=O)C[C@@](O)(C(=O)CO)C[C@@H]3OC1CC(N)C(O)C(C)O1 (stereo not given in full), which T/C (dose: 0.06 mg/kg/injection, schedule: Q01DX009 (ip), vehicle: saline, evaluated on day 5) is on record?
The T/C was 135, 149, 180 % of control.

And the T/C (dose: 0.06 mg/kg/injection, schedule: Q01DX009 (ip), vehicle: saline, evaluated on day 45)?
Its T/C is 131 % of control.

And the T/C (dose: 0.06 mg/kg/injection, schedule: Q01DX009 (ip), vehicle: saline, evaluated on day 90)?
The T/C was 149 and 180 % of control.

What about the T/C (dose: 0.13 mg/kg/injection, schedule: Q01DX001 (ip), vehicle: saline, evaluated on day 5) of the same compound?
Its T/C is 140 and 142 % of control.

What about the T/C (dose: 0.13 mg/kg/injection, schedule: Q01DX001 (ip), vehicle: saline, evaluated on day 45) of the same compound?
The T/C was 141 % of control.

And the T/C (dose: 0.13 mg/kg/injection, schedule: Q01DX001 (ip), vehicle: saline, evaluated on day 60)?
The T/C was 136 % of control.

And the T/C (dose: 0.13 mg/kg/injection, schedule: Q01DX009 (ip), vehicle: saline, evaluated on day 5)?
Its T/C is 166, 169, 207 % of control.

And the T/C (dose: 0.13 mg/kg/injection, schedule: Q01DX009 (ip), vehicle: saline, evaluated on day 45)?
Its T/C is 163 % of control.

What about the T/C (dose: 0.13 mg/kg/injection, schedule: Q01DX009 (ip), vehicle: saline, evaluated on day 60) of the same compound?
Its T/C is 157 % of control.

And the T/C (dose: 0.13 mg/kg/injection, schedule: Q01DX009 (ip), vehicle: saline, evaluated on day 90)?
Its T/C is 166 and 207 % of control.

What about the T/C (dose: 0.25 mg/kg/injection, schedule: Q01DX001 (ip), vehicle: saline, evaluated on day 5) of the same compound?
The T/C was 144 and 154 % of control.

What about the T/C (dose: 0.25 mg/kg/injection, schedule: Q01DX001 (ip), vehicle: saline, evaluated on day 45) of the same compound?
Its T/C is 143 % of control.

What about the T/C (dose: 0.25 mg/kg/injection, schedule: Q01DX001 (ip), vehicle: saline, evaluated on day 60) of the same compound?
The T/C was 153 % of control.

And the T/C (dose: 0.25 mg/kg/injection, schedule: Q01DX009 (ip), vehicle: saline, evaluated on day 5)?
The T/C was 179, 184, 295 % of control.

What about the T/C (dose: 0.25 mg/kg/injection, schedule: Q01DX009 (ip), vehicle: saline, evaluated on day 45) of the same compound?
Its T/C is 175 % of control.

And the T/C (dose: 0.25 mg/kg/injection, schedule: Q01DX009 (ip), vehicle: saline, evaluated on day 60)?
The T/C was 133, 138, 140, 152, 163, 186, 187, 189, 191 (2×), 193 (2×), 204, 211, 226 [9 of 10 alive], 236, 308 % of control.

What about the T/C (dose: 0.25 mg/kg/injection, schedule: Q01DX009 (ip), vehicle: saline, evaluated on day 90) of the same compound?
The T/C was 184 and 295 % of control.

And the survivor count (dose: 0.25 mg/kg/injection, schedule: Q01DX009 (ip), vehicle: saline)?
Its survivor count is 10 of 10.

And the T/C (dose: 0.25 mg/kg/injection, schedule: Q03HX008 (ip), vehicle: saline)?
The T/C was 133 % of control.

What about the T/C (dose: 0.37 mg/kg/injection, schedule: Q01DX009 (ip), vehicle: saline) of the same compound?
The T/C was 131 % of control.

What about the T/C (dose: 0.5 mg/kg/injection, schedule: Q01DX001 (ip), vehicle: saline, evaluated on day 5) of the same compound?
The T/C was 160 and 203 % of control.

What about the T/C (dose: 0.5 mg/kg/injection, schedule: Q01DX001 (ip), vehicle: saline, evaluated on day 45) of the same compound?
Its T/C is 200 % of control.

What about the T/C (dose: 0.5 mg/kg/injection, schedule: Q01DX001 (ip), vehicle: saline, evaluated on day 60) of the same compound?
Its T/C is 160 % of control.

And the T/C (dose: 0.5 mg/kg/injection, schedule: Q01DX009 (ip), vehicle: saline, evaluated on day 5)?
Its T/C is 179 (2×) and 491 % of control.

What about the T/C (dose: 0.5 mg/kg/injection, schedule: Q01DX009 (ip), vehicle: saline, evaluated on day 45) of the same compound?
Its T/C is 175 % of control.

What about the T/C (dose: 0.5 mg/kg/injection, schedule: Q01DX009 (ip), vehicle: saline, evaluated on day 60) of the same compound?
The T/C was 134, 156, 165, 181, 213, 216, 218, 220, 224, 225, 241 [8 of 10 alive], 262, 272, 283, 288, 299, 303, 310, 313, 321 % of control.

What about the T/C (dose: 0.5 mg/kg/injection, schedule: Q01DX009 (ip), vehicle: saline, evaluated on day 90) of the same compound?
Its T/C is 179 and 491 % of control.

And the survivor count (dose: 0.5 mg/kg/injection, schedule: Q01DX009 (ip), vehicle: saline)?
The survivor count was 10 of 10.

And the T/C (dose: 0.5 mg/kg/injection, schedule: Q04DX003 (ip), vehicle: saline, evaluated on day 8)?
The T/C was 125 % of control.

What about the T/C (dose: 0.5 mg/kg/injection, schedule: Q04DX003 (ip), vehicle: saline, evaluated on day 60) of the same compound?
Its T/C is 111, 158, 176 % of control.

And the T/C (dose: 0.75 mg/kg/injection, schedule: Q01DX001 (ip), vehicle: saline)?
Its T/C is 127 % of control.

What about the T/C (dose: 0.75 mg/kg/injection, schedule: Q04DX003 (ip), vehicle: saline) of the same compound?
Its T/C is 145 % of control.

And the T/C (dose: 1.0 mg/kg/injection, schedule: Q01DX001 (ip), vehicle: saline, evaluated on day 5)?
The T/C was 217 and 275 % of control.

What about the T/C (dose: 1.0 mg/kg/injection, schedule: Q01DX001 (ip), vehicle: saline, evaluated on day 45) of the same compound?
Its T/C is 219 % of control.

What about the T/C (dose: 1.0 mg/kg/injection, schedule: Q01DX001 (ip), vehicle: saline, evaluated on day 60) of the same compound?
The T/C was 260 % of control.

What about the T/C (dose: 1.0 mg/kg/injection, schedule: Q01DX001 (ip), vehicle: water, evaluated on day 40) of the same compound?
Its T/C is 118 % of control.

What about the T/C (dose: 1.0 mg/kg/injection, schedule: Q01DX001 (ip), vehicle: water, evaluated on day 45) of the same compound?
Its T/C is 101 [9 of 10 alive], 112, 142 % of control [9 of 10 alive].

What about the T/C (dose: 1.0 mg/kg/injection, schedule: Q01DX001 (ip), vehicle: water, evaluated on day 50) of the same compound?
Its T/C is 132 % of control.

What about the T/C (dose: 1.0 mg/kg/injection, schedule: Q01DX001 (ip), vehicle: water, evaluated on day 60) of the same compound?
The T/C was 117, 132, 134, 138, 144, 148 (2×), 154 (2×), 161 (2×), 164, 170, 171, 173, 174, 175, 177, 178, 180 (2×), 182, 185, 188, 189, 190, 191, 192, 193, 196, 206, 207, 218, 225, 226, 236 % of control (2×).

And the T/C (dose: 1.0 mg/kg/injection, schedule: Q01DX009 (ip), vehicle: saline, evaluated on day 5)?
The T/C was 216, 434, 491 % of control.
